In US8580258:
Results are given in words; binding and its absence hold for the method and conditions named. Some entries that bind do so weakly or less than the wild type.

Chains of the proteins cited; added tags and fusions are not shown. Residues count along the entry.
UniProt P32004, residues 20-1120: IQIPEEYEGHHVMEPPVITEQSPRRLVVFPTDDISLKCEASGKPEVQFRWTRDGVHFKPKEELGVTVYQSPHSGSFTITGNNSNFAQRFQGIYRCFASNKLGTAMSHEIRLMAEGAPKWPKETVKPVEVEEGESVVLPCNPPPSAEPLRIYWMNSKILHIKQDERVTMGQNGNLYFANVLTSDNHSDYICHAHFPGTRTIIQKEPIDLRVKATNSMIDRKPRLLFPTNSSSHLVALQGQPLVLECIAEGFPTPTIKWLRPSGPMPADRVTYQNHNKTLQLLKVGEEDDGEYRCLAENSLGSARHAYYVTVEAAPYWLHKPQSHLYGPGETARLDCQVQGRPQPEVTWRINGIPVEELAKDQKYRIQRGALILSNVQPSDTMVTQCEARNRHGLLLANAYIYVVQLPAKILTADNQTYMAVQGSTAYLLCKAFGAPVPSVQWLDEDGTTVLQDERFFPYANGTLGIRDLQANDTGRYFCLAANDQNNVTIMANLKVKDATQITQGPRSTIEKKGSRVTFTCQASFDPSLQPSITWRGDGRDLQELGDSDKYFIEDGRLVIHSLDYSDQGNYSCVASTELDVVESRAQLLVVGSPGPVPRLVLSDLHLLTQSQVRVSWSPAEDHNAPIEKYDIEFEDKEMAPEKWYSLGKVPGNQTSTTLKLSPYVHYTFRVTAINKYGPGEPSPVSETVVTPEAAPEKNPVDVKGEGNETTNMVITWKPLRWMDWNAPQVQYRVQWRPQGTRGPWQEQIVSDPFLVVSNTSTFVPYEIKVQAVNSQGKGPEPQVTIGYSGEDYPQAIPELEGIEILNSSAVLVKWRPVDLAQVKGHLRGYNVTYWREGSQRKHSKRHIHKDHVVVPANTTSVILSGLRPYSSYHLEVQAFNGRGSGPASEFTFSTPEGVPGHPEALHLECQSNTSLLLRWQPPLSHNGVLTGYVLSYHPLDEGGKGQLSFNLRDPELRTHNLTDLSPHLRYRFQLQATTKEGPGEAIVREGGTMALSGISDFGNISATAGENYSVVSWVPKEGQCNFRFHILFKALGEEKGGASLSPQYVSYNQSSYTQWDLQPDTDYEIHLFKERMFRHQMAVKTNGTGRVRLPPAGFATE

Biological target: recombinant L1-Fc fusion protein (human L1-Fc protein comprising the ectodomain of L1) (human) (UniProt P32004)
Assay: cell adhesion assay, J558-L1 cells on slides coated with L1-Fc (10 µg/ml), bound cells counted by bright field microscopy, mean ± SD

binding: binds
Substance: L1 on J558-L1 cells (L1-transfected cells) (from UniProt P32004 20-1257) (receptor)
